Source: PMC4974056, “The proposed channel-enzyme transient receptor potential melastatin 2 does not possess ADP ribose hydrolase activity” (eLife, 2016)
Results are given in words; binding and its absence hold for the method and conditions named. Some binding calls cover weakened binding; strength is not graded here.

Molecular target: mitochondrial ADPR pyrophosphatase NUDT9 (UniProt Q9BW91)
Test: SEC; Superdex 200 10/300 GL, 20 mM Tris (pH 8.5), 100 mM NaCl; affinity-purified proteins, absorbance at 280 nm; Chi4S also run again after five-fold concentration to ~100 uM; both purified

- binding: binds
B1: mitochondrial ADPR pyrophosphatase NUDT9 (enzyme, UniProt Q9BW91 59-350)
chain: ENSHNKARTSPYPGSKVERSQVPNEKVGWLVEWQDYKPVEYTAVSVLAGPRWADPQISESNFSPKFNEKDGHVERKSKNGLYEIENGRPRNPAGRTGLVGRGLLGRWGPNHAADPIITRWKRDSSGNKIMHPVSGKHILQFVAIKRKDCGEWAIPGGMVDPGEKISATLKREFGEEALNSLQKTSAEKREIEEKLHKLFSQDHLVIYKGYVDDPRNTDNAWMETEAVNYHDETGEIMDNLMLEAGDDAGKVKWVDINDKLKLYASHSQFIKLVAEKRDAHWSEDSEADCHAL
